Assay results as given in paper PMC10450504.
These are yes or no findings as the source states them, for the method shown. In cells and extracts the contact can be indirect. Some entries that bind do so weakly or less than the wild type. For some assays here: Sequences can lack the tags named with a protein. Values belong to the binder of their own block, whether it stands above or below them.

Key:
[1] = target: T1, CD9, endogenous in mouse oocyte oolemma (mouse (endogenous in mouse oocytes)) (UniProt P40240); experiment: proximity ligation; Duolink In Situ Red kit on fixed zona-free mouse MII oocytes; pairs of primary antibodies overnight at 4°C, PLUS and MINUS PLA probes; confocal microscopy
T1 sequence: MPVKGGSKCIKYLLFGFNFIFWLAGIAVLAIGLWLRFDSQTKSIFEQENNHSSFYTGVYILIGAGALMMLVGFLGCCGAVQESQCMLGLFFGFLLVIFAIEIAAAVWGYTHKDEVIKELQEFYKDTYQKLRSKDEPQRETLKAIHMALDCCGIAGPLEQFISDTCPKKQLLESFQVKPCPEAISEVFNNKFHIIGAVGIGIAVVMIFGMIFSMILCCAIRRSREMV

[2] = target: T2, mouse CD9-GFP expressed in HEK293T/17 cells (mouse) (UniProt P40240); experiment: co-IP; lysate (1% CHAPS, 30 mM Tris-HCl pH 7.5) of HEK293T/17 cells co-transfected with Juno and CD9-GFP; anti-GFP antibody on Protein G magnetic beads overnight at 4°C; Western blot with anti-Juno antibody
T2 sequence: T1 sequence

binding [1]: binds
B1: Juno (Folate receptor 4), endogenous in mouse oocyte oolemma (receptor, UniProt Q9EQF4 20-222)
chain: GDKLLSVCMNSKRHKQEPGPEDELYQECRPWEDNACCTRSTSWEAHLEEPLLFNFSMMHCGLLTPACRKHFIQAICFHECSPNLGPWIQPVVPNGQEEQRVWGVPLCQEDCEDWWRACHSSLTCKSNWLHGWDWSEEKKHCPAHEPCLPFSYHFPTPDDLCEKIWNNTFKASPERRNSGRCLQKWFEPTLSNPNVEVALHFAG

binding [2]: binds
B2: mouse Juno expressed in HEK293T/17 cells (receptor, UniProt Q9EQF4 20-221)
chain: GDKLLSVCMNSKRHKQEPGPEDELYQECRPWEDNACCTRSTSWEAHLEEPLLFNFSMMHCGLLTPACRKHFIQAICFHECSPNLGPWIQPVVPNGQEEQRVWGVPLCQEDCEDWWRACHSSLTCKSNWLHGWDWSEEKKHCPAHEPCLPFSYHFPTPDDLCEKIWNNTFKASPERRNSGRCLQKWFEPTLSNPNVEVALHFA
